Laboratory results as given in patent US8546338B2, “Self-assembling hydrogels based on dicephalic peptide amphiphiles” (Johnson & Johnson Consumer Companies, Inc., priority 2010, dated 2013).
Some results were stated once for a whole list of compounds, not compound by compound.

Test: Oscillating rheology, time sweep (kinetics of formation)
Type: physicochemical
Conditions: 2 wt % DPA in DMEM, calcium chloride added, 25° C.
Description: Oscillating rheology by the parallel plates method (radius=25 mm) was performed on 400 μl gels to assess the mechanical strengths of gels. Time sweeps were performed to evaluate kinetics of formation at a constant strain rate of 1% and frequency of 1 rad/s. Strain sweeps were performed ranging from 1-100% strain in increments of 2% at a constant frequency of 1 rad/s. Cross-over of G′ and G″ was used to determine the gel point and point of breakdown. Time sweeps were initiated immediately after mixing the solutions that lead to DPA hydrogel formation. In the strain sweeps, the gels were allowed to form on the plate for 30 minutes before the measurement is initiated.
The gelation process was initiated on the plate at 25° C. by the addition of 10 μl of 100 mg/ml calcium chloride solution to a solution of the DPA in DMEM.

## CCCCCCCCCCCCCCCC(=O)NC(C(=O)NCC(=O)N[C@H](C(=O)N[C@@H](C)C(=O)N[C@H](C(=O)N[C@@H](C)C(=O)N[C@H](C(=O)N[C@@H](C)C(=O)N[C@@H](CCC(=O)O)C(=O)NCC(=O)N[C@@H](CCC(=O)O)C(=O)O)C(C)C)C(C)C)C(C)C)C(=O)NCC(=O)N[C@H](C(=O)N[C@@H](C)C(=O)N[C@H](C(=O)N[C@@H](C)C(=O)N[C@H](C(=O)N[C@@H](C)C(=O)N[C@@H](CCC(=O)O)C(=O)NCC(=O)N[C@@H](CCC(=O)O)C(=O)O)C(C)C)C(C)C)C(C)C [Gly-Val-Ala-Val-Ala-Val-Ala-Glu-Gly-Glu]
  Gel point (cross-over of G′ and G″), extrapolation of the curves: 45 to 50 s
